Hit rate of the full screen: of about 52,000 sequences, about 210 (0.4%) were called active.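 Rule for the calls: active = gene whose silencing raises cell survival under the drug, median off-target-corrected z-score across its silencing RNAs 2 or more; inactive = the rest.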 The list shows a part of the results.

A short description of this assay: Resistance to Poly (ADP-Ribose) Polymerase inhibitor: Gene Identification via Genome-wide siRNA Screen. The note with it: mouse BRCA2 R2336H ES cells, olaparib, CellTiter-Glo viability; hits give high values. The gist of the method: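 Mouse BRCA2 R2336H ES cells were reverse-transfected with siRNA (20 nM final), treated at 48 h with 500 nM olaparib, and read by CellTiter-Glo after 72 h. Scores: MAD-based z per siRNA, median per gene, seed off-target correction.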
A general note: Cellular ATP, detected with luciferase, serves as a proxy for viable cell number.
For GGAUGAAGGAAUCCAUGCATT against Pcdhga6, the z-score was inactive: -1.01.
The same measure for GGCUCAGCUCAUGAACGACTT against Acvr2b: inactive: 0.356; for GCCAUACAUAAACUACAAUTT against Gulo: inactive: 0.704.
The value for GCAACUGAACCUUCUGCUATT against Mopt was inactive: 0.936; that for GGUAAAUCAGAAGACUGAATT against Papd4 was inactive: -1.9.
The same measure for CGCAAAGUGGACAAACGUATT against Kcne3: inactive: -0.197; for GGGAUCCUCAGAAGGUGAATT against Hrbl: inactive: -0.159; for “GCAUCUCUCCAACCUUCCGTT against 2600011E07Rik”: inactive: 0.799.
With CCACACUUCCCUUAUUUAATT against Arpc5, the z-score is inactive: 0.723.
Regarding GGAUUUUUUGAUUACUGUGTT against p, the z-score is inactive: 1.74.
For GGUGUUCGAUGGACGUGAUTT against Bmp1, the z-score is inactive: 0.439.
The same measure for CCAUGUUUAUGGCACGCUGTT against Postn: inactive: 1.2; for “GCAUAGCAAUGAAAAUCUATT against A930010E21Rik”: inactive: -0.388.
For the sequence GGAAUGAGCUGAAUGCAAATT against Psmc5, the z-score is inactive: -2.3.
With GGUGUAACACUCAUUUAUCTT against Ifitm3, the z-score was inactive: 0.917.
For GGAGAAUGACUACUAUACUTT against Itm1, the z-score is inactive: 0.0768.
The same measure for “GCUUCUGGUGGUCAUAGCUTT against 3110005O21Rik”: inactive: 1.39; for GGGAAUGAAUUCAUCUAAATT against Tbc1d1: inactive: 0.267.
On to GAUGAAACCAAAGAAUGGCTT against AI604832, for which the z-score is inactive: -0.583.
The same measure for GGCACAGGUUUUCCAAGGUTT against Rp1hl1: inactive: -0.33; for GGCAAAGAGGAAAAGAGUGTT against Gtf2h2: inactive: 3.07.
The same measure for GCCUUUGAUAGUGGUGAAUTT against F11r: inactive: -1.75.
The value for GGACGGUUCCUUCAUAGUATT against Kdelc1 was inactive: -0.894.
Take GCCGAUUCUCAUAUUUGACTT against Exo1: the z-score is inactive: 0.209.
Turning to GGUCAUUUUGUUUCGCUUUTT against Fgf5, the z-score is inactive: -0.338.
As to GCAUCUCCCAACCAUGAUGTT against Myl3, the z-score is inactive: 2.08.
Regarding GGAACUCCAACAGGACUUUTT against Slc26a9, the z-score is inactive: -0.568.
For CAGUUCCGUACAGUUUUACTT against Hist1h3a, the z-score was inactive: 1.49.
The value for GCAAUAAGGGCAUUAUAAATT against Wdhd1 was inactive: -0.259.
In the case of “CCUAAUGAUGAGAUUAAUGTT against 1810024B03Rik”, the z-score is inactive: 0.285.
In the case of GGUGAAAAGAGAUUUGAAUTT against Sp4, the z-score is inactive: -0.91.
The value for GGUGGCUAUUAAAAGUAUUTT against Ulk2 was inactive: 0.252.
The value for “CCAAAUGCUAAGUAUACCUTT against 5730446C15Rik” was inactive: -0.783; that for CCUACUUAUGCCUUGCCACTT against Rbpsuhl was inactive: 1.64; that for GGAUUGUUUAUCUGUCUUCTT against Cyp3a44 was inactive: 1.32.
As to CGGUGCUCAUGUUUAACUGTT against BC065078, the z-score was inactive: -0.793.
In the case of GGAGGUGACUAUCAUUUUUTT against Gng4, the z-score was inactive: 0.0976.
For the sequence “GGCAAAUACUUCACAUUAUTT against 9430034D17Rik”, the z-score is inactive: 0.099.
The same measure for “GGAUUCUUUGGUCUAUUUCTT against 1700121L12Rik”: inactive: -0.447; for CGAAAAUAGUGAGGAUUAUTT against S100a18: inactive: 1.76.
With “CCUUUAGCCCUCAAUAUUCTT against 2900006F19Rik”, the z-score is inactive: 0.402.
For CCUUCGAUAAAUCUCAAAUTT against Stambp, the z-score was inactive: 0.529.
The value for GCAAUAGACCGUUAAUGGATT against Tslp was inactive: -0.183; that for GCGCGUCAUAAAAAGCAUATT against Lhx6 was inactive: 1.08; that for “CGACCUACUCUACAGCAAATT against B830045N13Rik” was inactive: 1.09.
As for GGAGCAGAAAGAAAUUUCCTT against Gpa33, the z-score is inactive: 0.732.
The same measure for CCAUAUGUGAGACAACACATT against Tas2r136: inactive: 0.982; for GCUAGCAAUUAAAAGAUCGTT against Ppp2r2c: inactive: 0.583; for GGUAUGAAUCUGGAGAUCATT against Por: inactive: 1.44.
On to “GCUGCCACUGGACACAUAATT against 4930591A17Rik”, for which the z-score is inactive: -2.54.
The value for “GGUGUUUGCCGAGUGACUGTT against B930090D16Rik” was inactive: -0.567; that for GGUUUCAGAGCUAAACCCUTT against D13Wsu64e was inactive: 0.671.
The same measure for “GGAGUAUUGUUUUAAACCCTT against 4921511F01Rik”: inactive: 0.69.
In the case of CCAAAUGUAGCGGAACUGATT against Rsu1, the z-score is inactive: -1.37.
The same measure for GCUAUGGGAUAUGAGCUGATT against BC008155: inactive: -0.679; for GGUACCUGUUUGUUUUACATT against Epb4.1l4b: inactive: 5.02; for AGGUGUCUACUUUCCAGCCTT against BC019537: inactive: 0.481.
The same measure for “CGACAAGAAAACAUACUAGTT against 2810037C03Rik”: inactive: -1.72; for CGAUGUGACUGGUUUAAGGTT against Wtap: inactive: 0.64.
The value for CCUCAAGGCACUAAUAGAATT against Car7 was inactive: -1.15; that for GCUGUUUGAUAAAACAAGATT against Snx6 was inactive: -0.14.
Take “GGAGUUUAAUUACCAAACATT against 2700050L05Rik”: the z-score was inactive: 1.16.
Take GGCUCGUGAGCAUUCACUGTT against Nfrkb: the z-score is inactive: -1.31.
Consider GUGUCCUGAACCUUGUCCCTT against Sprr2g, for which the z-score was inactive: -0.601.
The value for “CGUAAGAUCAACGAGAGAUTT against D15Ertd785e” was inactive: -0.708; that for GGUACAAUGUUCAUACCAATT against Rab9b was inactive: -0.746; that for GGGAGUCCUACGCAUAUGATT against BC051665 was inactive: -0.549.
The value for GCAGCACACUUGGUACAUCTT against Icmt was inactive: 1.24; that for UGGUGCUGCUAUCUAUACCTT against Olfr330 was inactive: -0.511; that for “GGAGAGUGUCCUUUCAAAUTT against 6330416L07Rik” was inactive: 0.369.
The value for GGUGACUGUCCUAUGAUAUTT against Crip2 was inactive: 0.212; that for GGCCUGUACGGAGAUCAAUTT against Dpp7 was inactive: -0.0689; that for CCUGUUUUAUGCCACAAUUTT against Tas2r125 was inactive: -0.0101.
For the sequence CCUAUUGUCCUGCUAACAATT against Aldh7a1, the z-score was inactive: -0.901.
The value for GGGACACUGUGUCCCUUCUTT against Kua was inactive: 0.0634; that for GAAGACCAAGCUUUGUACUTT against Olfr339 was inactive: -0.17.
The value for GGUCAGAAAAGUAUGUUGGTT against Birc1e was inactive: -0.467.
The same measure for CCUAAAUUUGAGGUAACCUTT against Zfp295: inactive: -0.524.
Take GCCUCUAUCUGUACUCUGGTT against Pdk2: the z-score was inactive: 1.23.
The same measure for GGAAGAGGAGAAUGUCUUGTT against Traip: inactive: -1.26.
The value for GGAAAAGGAAUGUGAAUACTT against Celsr2 was inactive: -1.43; that for CGCAAGAAUCUCCUUUAAUTT against BC029103 was inactive: -0.136.
The value for CGUAUUAUUGUCAUGCUGUTT against Gpr142 was inactive: 1.33.
Turning to GCUGUGUGAAUACCACUUUTT against Cd2bp2, the z-score is inactive: -0.94.
The same measure for GCACUUCCACGUGUGGAUUTT against Olfr648: inactive: -0.545.
“GGGCUAAAUUAAGCUUCUATT against A630014H24Rik”: the z-score is inactive: -0.213.
The value for “GCCAACCUACUGAGUCUCATT against 2700094L05Rik” was inactive: -0.328; that for GCUUGAUGAGAAAUCAACUTT against Mtap2 was inactive: 0.397; that for GGAGCAGAUUAAGUGCCUGTT against Krt2-20 was inactive: 0.0414.
In the case of GGAUUAAGUUGUCAUCAUUTT against Pftk1, the z-score is inactive: 1.03.
The value for CCAAGAAGAUUAGAGACAGTT against Olfr591 was inactive: 1.24.
Turning to GGAAAGUCAGCCUUUAGCATT against Prdx3, the z-score is inactive: 0.338.
The value for GGAGGGAGUAUCCAUGUCATT against Nr2c2 was inactive: 0.295; that for “CCCUGACAUUUGGAAUGUUTT against 2410116G06Rik” was inactive: -1.48.
The same measure for GCAGAAACGAUUGUACCAUTT against Ar: inactive: -0.502.
The value for “GGAUCAUUAAGACCCAGCATT against 1210002B07Rik” was inactive: -2.42; that for GGAUGGCUUGUUUGGACAGTT against Ptprn was inactive: -0.81.
As for GGCUUUGAGAUAUGAACAGTT against Arrdc2, the z-score was inactive: -0.0907.
The same measure for GGGACUGCAUACUUAAGUUTT against Amacr: inactive: 0.149.
Turning to “GGUUAUGGUAUUAACAGGUTT against 9130214H05Rik”, the z-score was inactive: 0.0412.
As to GGUUUAGUGAAAAACUGCUTT against Hmga2, the z-score was inactive: 0.144.
On to CCUGGUCAUUAGGCUAGGATT against Ecgf1, for which the z-score is inactive: 1.35.
In the case of GGUUUUUUGAGCAUGGGUUTT against Alk, the z-score is inactive: -0.498.
As to GAGUCCCUUGGCAGCUCAUTT against Klra8, the z-score is inactive: -0.753.

The values above are taken from PubChem BioAssay AID1347423 (Functional Genomics Laboratory (NCATS/FGL), 2020).
